Laboratory results: article doi:10.1101/2025.09.24.678297
Results are given in words; binding and its absence hold for the method and conditions named. Some results given as binding are weak or reduced against the parent protein; the word gives no strength. Where a sequence is shown, tags or fusion partners need not be part of it.

T1: Pil1-Ste4-mCherry (WT) (S. pombe) (UniProt P36622)
T1 sequence: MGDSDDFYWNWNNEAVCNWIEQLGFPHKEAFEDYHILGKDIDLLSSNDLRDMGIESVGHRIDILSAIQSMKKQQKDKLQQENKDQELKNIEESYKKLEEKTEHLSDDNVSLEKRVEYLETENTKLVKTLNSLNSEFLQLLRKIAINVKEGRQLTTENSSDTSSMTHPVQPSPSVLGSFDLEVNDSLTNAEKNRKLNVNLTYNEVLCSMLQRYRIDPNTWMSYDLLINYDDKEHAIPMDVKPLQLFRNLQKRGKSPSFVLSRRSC

T2: Ste4, two-hybrid fusion (S. pombe) (UniProt P36622)
T2 sequence: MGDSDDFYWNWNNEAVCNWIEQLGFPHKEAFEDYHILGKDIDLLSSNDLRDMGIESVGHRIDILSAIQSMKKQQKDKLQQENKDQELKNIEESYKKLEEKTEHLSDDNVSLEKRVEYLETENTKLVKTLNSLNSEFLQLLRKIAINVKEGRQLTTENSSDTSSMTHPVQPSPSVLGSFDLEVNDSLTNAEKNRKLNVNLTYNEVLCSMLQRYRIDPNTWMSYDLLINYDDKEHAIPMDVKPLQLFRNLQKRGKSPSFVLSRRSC


What was measured:
[1] = target: T1, Pil1-Ste4-mCherry (WT) (S. pombe); assay: Pil1 co-recruitment assay
[2] = target: T2, Ste4, two-hybrid fusion (S. pombe); assay: two-hybrid

| Binder | binding [1] | binding [2] |
| --- | --- | --- |
| Byr2-GFP (WT) (enzyme, UniProt P28829 1-659) MEYYTSKEVAEWLKSIGLEKYIEQFSQNNIEGRHLNHLTLPLLKDLGIENTAKGKQFLKQRDYLREFPRPCILRFIACNGQTRAVQSRGDYQKTLAIALKKFSLEDASKFIVCVSQSSRIKLITEEEFKQICFNSSSPERDRLIIVPKEKPCPSFEDLRRSWEIELAQPAALSSQSSLSPKLSSVLPTSTQKRSVRSNNAKPFESYQRPPSELINSRISDFFPDHQPKLLEKTISNSLRRNLSIRTSQGHNLGNFGQEILPRSSRRARPSELVCPLSSLRISVAEDVNRLPRIDRGFDPPLTVSSTQRISRPPSLQKSITMVGVEPLYQSNGNEKSSKYNVFSESAHGNHQVLSFSPGSSPSFIEQPSPISPTSTTSEDTNTLEEDTDDQSIKWIRGALIGSGSFGQVYLGMNASSGELMAVKQVILDSVSESKDRHAKLLDALAGEIALLQELSHEHIVQYLGSNLNSDHLNIFLEYVPGGSVAGLLTMYGSFEETLVKNFIKQTLKGLEYLHSRGIVHRDIKGANILVDNKGKIKISDFGISKKLELNSTSTKTGGARPSFQGSSFWMAPEVVKQTMHTEKTDIWSLGCLVIEMLTSKHPYPNCDQMQAIFRIGENILPEFPSNISSSAIDFLEKTFAIDCNLRPTASELLSHPFVS | binds | – |
| Byr2, two-hybrid fusion (enzyme, UniProt P28829 1-659) MEYYTSKEVAEWLKSIGLEKYIEQFSQNNIEGRHLNHLTLPLLKDLGIENTAKGKQFLKQRDYLREFPRPCILRFIACNGQTRAVQSRGDYQKTLAIALKKFSLEDASKFIVCVSQSSRIKLITEEEFKQICFNSSSPERDRLIIVPKEKPCPSFEDLRRSWEIELAQPAALSSQSSLSPKLSSVLPTSTQKRSVRSNNAKPFESYQRPPSELINSRISDFFPDHQPKLLEKTISNSLRRNLSIRTSQGHNLGNFGQEILPRSSRRARPSELVCPLSSLRISVAEDVNRLPRIDRGFDPPLTVSSTQRISRPPSLQKSITMVGVEPLYQSNGNEKSSKYNVFSESAHGNHQVLSFSPGSSPSFIEQPSPISPTSTTSEDTNTLEEDTDDQSIKWIRGALIGSGSFGQVYLGMNASSGELMAVKQVILDSVSESKDRHAKLLDALAGEIALLQELSHEHIVQYLGSNLNSDHLNIFLEYVPGGSVAGLLTMYGSFEETLVKNFIKQTLKGLEYLHSRGIVHRDIKGANILVDNKGKIKISDFGISKKLELNSTSTKTGGARPSFQGSSFWMAPEVVKQTMHTEKTDIWSLGCLVIEMLTSKHPYPNCDQMQAIFRIGENILPEFPSNISSSAIDFLEKTFAIDCNLRPTASELLSHPFVS | – | binds |

The next lines start with the values.

| binding [1] | binding [2] | Binder |
| --- | --- | --- |
| no binding | – | Byr2^N28I-GFP (enzyme, UniProt P28829 1-659) MEYYTSKEVAEWLKSIGLEKYIEQFSQINIEGRHLNHLTLPLLKDLGIENTAKGKQFLKQRDYLREFPRPCILRFIACNGQTRAVQSRGDYQKTLAIALKKFSLEDASKFIVCVSQSSRIKLITEEEFKQICFNSSSPERDRLIIVPKEKPCPSFEDLRRSWEIELAQPAALSSQSSLSPKLSSVLPTSTQKRSVRSNNAKPFESYQRPPSELINSRISDFFPDHQPKLLEKTISNSLRRNLSIRTSQGHNLGNFGQEILPRSSRRARPSELVCPLSSLRISVAEDVNRLPRIDRGFDPPLTVSSTQRISRPPSLQKSITMVGVEPLYQSNGNEKSSKYNVFSESAHGNHQVLSFSPGSSPSFIEQPSPISPTSTTSEDTNTLEEDTDDQSIKWIRGALIGSGSFGQVYLGMNASSGELMAVKQVILDSVSESKDRHAKLLDALAGEIALLQELSHEHIVQYLGSNLNSDHLNIFLEYVPGGSVAGLLTMYGSFEETLVKNFIKQTLKGLEYLHSRGIVHRDIKGANILVDNKGKIKISDFGISKKLELNSTSTKTGGARPSFQGSSFWMAPEVVKQTMHTEKTDIWSLGCLVIEMLTSKHPYPNCDQMQAIFRIGENILPEFPSNISSSAIDFLEKTFAIDCNLRPTASELLSHPFVS |
| – | no binding | Byr2^N28I, two-hybrid fusion (enzyme, UniProt P28829 1-659) MEYYTSKEVAEWLKSIGLEKYIEQFSQINIEGRHLNHLTLPLLKDLGIENTAKGKQFLKQRDYLREFPRPCILRFIACNGQTRAVQSRGDYQKTLAIALKKFSLEDASKFIVCVSQSSRIKLITEEEFKQICFNSSSPERDRLIIVPKEKPCPSFEDLRRSWEIELAQPAALSSQSSLSPKLSSVLPTSTQKRSVRSNNAKPFESYQRPPSELINSRISDFFPDHQPKLLEKTISNSLRRNLSIRTSQGHNLGNFGQEILPRSSRRARPSELVCPLSSLRISVAEDVNRLPRIDRGFDPPLTVSSTQRISRPPSLQKSITMVGVEPLYQSNGNEKSSKYNVFSESAHGNHQVLSFSPGSSPSFIEQPSPISPTSTTSEDTNTLEEDTDDQSIKWIRGALIGSGSFGQVYLGMNASSGELMAVKQVILDSVSESKDRHAKLLDALAGEIALLQELSHEHIVQYLGSNLNSDHLNIFLEYVPGGSVAGLLTMYGSFEETLVKNFIKQTLKGLEYLHSRGIVHRDIKGANILVDNKGKIKISDFGISKKLELNSTSTKTGGARPSFQGSSFWMAPEVVKQTMHTEKTDIWSLGCLVIEMLTSKHPYPNCDQMQAIFRIGENILPEFPSNISSSAIDFLEKTFAIDCNLRPTASELLSHPFVS |
